B1: wild-type recombinant mouse MASP-3 fused with PA-tag (WT rmMASP-3-PA) [mouse] / mouse mannose-binding lectin C (MBL-C) [mouse (endogenous in serum of C57BL/6J mice)] (parent)
chain 1: HTVELNEMFGQIQSPGYPDSYPSDSEVTWNITVPEGFRIKLYFMHFNLESSYLCEYDYVKVETEDQVLATFCGRETTDTEQTPGQEVVLSPGTFMSVTFRSDFSNEERFTGFDAHYMAVDVDECKEREDEELSCDHYCHNYIGGYYCSCRFGYILHTDNRTCRVECSGNLFTQRTGTITSPDYPNPYPKSSECSYTIDLEEGFMVSLQFEDIFDIEDHPEVPCPYDYIKIKAGSKVWGPFCGEKSPEPISTQTHSVQILFRSDNSGENRGWRLSYRAAGNECPKLQPPVYGKIEPSQAVYSFKDQVLVSCDTGYKVLKDNEVMDTFQIECLKDGAWSNKIPTCKIVDCGAPAGLKHGLVTFSTRNNLTTYKSEIRYSCQQPYYKMLHNTTGVYTCSAHGTWTNEVLKRSLPTCLPVCGQPSRALPNLVKRIIGGRNAELGLFPWQALIVVEDTSRVPNDKWFGSGALLSESWILTAAHVLRSQRRDNTVIPVSKEHVTVYLGLHDVRDKSGAVNSSAARVILHPDFNIQNYNHDIALVQLQKPVPLGAHVMPICLPRPEPEGPAPHMLGLVAGWGISNPNVTVDEIILSGTRTLSDVLQYVKLPVVSHAECKASYESRSGNYSVTENMFCAGYYEGGKDTCLGDSGGAFVIFDEMSQHWVAQGLVSWGGPEECGSKQVYGVYTKVSNYVDWLWEEMNSPRAVRDLQVER
chain 2: ETLTEGVQNSCPVVTCSSPGLNGFPGKDGRDGAKGEKGEPGQGLRGLQGPPGKVGPTGPPGNPGLKGAVGPKGDRGDRAEFDTSEIDSEIAALRSELRALRNWVLFSLSEKVGKKYFVSSVKKMSLDRVKALCSEFQGSVATPRNAEENSAIQKVAKDIAYLGITDVRVEGSFEDLTGNRVRYTNWNDGEPNNTGDGEDCVVILGNGKWNDVPCSDSFLAICEFSD

The experiment covers variants of B1. Kind of experiment: immunoprecipitation with anti-PA tag antibody beads from mouse serum, Western blot band intensity. Conditions: with mouse mannose-binding lectin C (MBL-C) [mouse (endogenous in serum of C57BL/6J mice)]; TBS containing 7 mM MgCl2 and 5 mM CaCl2 (TBS/Mg/Ca); parent: 1; read off a plot.
chain 1 E49A: the ratio to parent amounted to 0.05.
The result for chain 1 H218A reads 0.12.
The result for chain 1 Y225A reads 0.07; that for chain 1 D102A, 0.12.

These data come from PMC9425028.
